In series [1] the target is T1, CD30 (TNFRSF8) (UniProt P28908).
T1 sequence (looked up, limits assumed): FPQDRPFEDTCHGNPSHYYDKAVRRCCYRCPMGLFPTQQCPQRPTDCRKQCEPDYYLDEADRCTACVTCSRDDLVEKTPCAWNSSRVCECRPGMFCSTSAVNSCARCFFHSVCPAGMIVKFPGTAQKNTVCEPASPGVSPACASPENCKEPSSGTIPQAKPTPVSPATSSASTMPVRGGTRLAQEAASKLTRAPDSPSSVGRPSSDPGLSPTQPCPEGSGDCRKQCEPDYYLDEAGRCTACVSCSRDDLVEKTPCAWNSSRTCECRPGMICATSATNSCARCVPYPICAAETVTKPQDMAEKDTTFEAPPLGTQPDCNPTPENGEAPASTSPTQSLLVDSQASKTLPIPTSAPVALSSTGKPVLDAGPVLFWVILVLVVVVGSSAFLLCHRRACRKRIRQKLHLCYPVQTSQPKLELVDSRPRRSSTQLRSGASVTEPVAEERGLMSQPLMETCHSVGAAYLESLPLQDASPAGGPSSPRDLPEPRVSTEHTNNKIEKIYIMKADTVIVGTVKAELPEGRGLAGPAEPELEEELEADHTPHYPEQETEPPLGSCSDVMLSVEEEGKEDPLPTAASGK
The series is described as follows: activity in cells. To be noted: 3' double C18 hydrocarbon chain lipophilic anchor; aptamer-anchored NK92: killing of CD30+ lymphoma cells up 44, 62, 168% at E/T 3:1, 1:1, 1:3 vs parental NK92; no enhancement on CD30-negative cells; protein on the cell surface; single-stranded DNA; variant of CD30-specific ssDNA aptamer; dose not given here.

Series [2] concerns the target T1, CD30 (TNFRSF8). Nature of the series: flow cytometry. To be noted: 200 nM probe, DPBS, RT, 30 min; binds CD30+ K299, SUDHL-1, HDLM2; no binding to CD30-negative NK92, U937, Maver-1, Jeko-1; protein on the cell surface; label: 5'-Cy3; single-stranded DNA.

For some assays here: Where cells or extracts were used, other partners may take part. Where a protein sequence is shown, tags need not be part of it.

Regarding “ACTGGGCGAAACAAGTCTATTGACTATGAGC [Apt-2×C18 (CD30 aptamer with dual C18 hydrocarbon anchor)]”, the “functional effect of the aptamer” value in the series with CD30 (TNFRSF8) [1] is reported as “active”.
Take “ACTGGGCGAAACAAGTCTATTGACTATGAGC [CD30-specific ssDNA aptamer]”: in the series with CD30 (TNFRSF8) [2], the binding result is given as “binds”.

Values taken from US20230172979.
